Results are given in words; binding and its absence hold for the method and conditions named. In cells and extracts the contact can be indirect. These calls come from enrichment with a bait or labelling near it, and not all partners need be listed.
Molecular target: streptavidin-tagged RIG-I (STREP-RIG-I) (UniProt O95786)
Assay: affinity purification with mass spectrometry

Sequences of proteins named here, by UniProt entry; tags and fusion partners are left off.
UniProt O95786: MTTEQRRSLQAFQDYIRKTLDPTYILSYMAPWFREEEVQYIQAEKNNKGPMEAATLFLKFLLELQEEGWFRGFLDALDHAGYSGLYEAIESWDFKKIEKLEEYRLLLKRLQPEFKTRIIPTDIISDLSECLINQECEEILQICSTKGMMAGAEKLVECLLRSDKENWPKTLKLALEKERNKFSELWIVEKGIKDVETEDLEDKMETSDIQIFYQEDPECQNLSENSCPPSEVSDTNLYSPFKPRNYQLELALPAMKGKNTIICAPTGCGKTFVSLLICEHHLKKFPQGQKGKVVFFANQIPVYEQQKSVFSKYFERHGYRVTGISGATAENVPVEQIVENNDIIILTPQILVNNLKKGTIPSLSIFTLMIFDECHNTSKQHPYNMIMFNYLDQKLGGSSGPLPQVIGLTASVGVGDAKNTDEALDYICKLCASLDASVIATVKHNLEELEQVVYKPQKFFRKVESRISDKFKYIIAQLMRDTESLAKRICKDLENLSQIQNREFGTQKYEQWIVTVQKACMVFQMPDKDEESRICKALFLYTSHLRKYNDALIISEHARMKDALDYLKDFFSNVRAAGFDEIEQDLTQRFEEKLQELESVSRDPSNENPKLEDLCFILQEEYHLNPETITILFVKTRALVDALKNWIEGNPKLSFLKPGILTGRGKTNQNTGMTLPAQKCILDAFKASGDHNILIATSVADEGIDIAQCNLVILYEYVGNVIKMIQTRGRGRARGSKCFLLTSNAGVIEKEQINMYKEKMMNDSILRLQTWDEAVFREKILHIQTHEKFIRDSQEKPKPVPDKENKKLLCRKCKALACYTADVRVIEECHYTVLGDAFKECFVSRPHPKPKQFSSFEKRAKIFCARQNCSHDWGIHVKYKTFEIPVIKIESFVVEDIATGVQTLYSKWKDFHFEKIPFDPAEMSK
UniProt P62258: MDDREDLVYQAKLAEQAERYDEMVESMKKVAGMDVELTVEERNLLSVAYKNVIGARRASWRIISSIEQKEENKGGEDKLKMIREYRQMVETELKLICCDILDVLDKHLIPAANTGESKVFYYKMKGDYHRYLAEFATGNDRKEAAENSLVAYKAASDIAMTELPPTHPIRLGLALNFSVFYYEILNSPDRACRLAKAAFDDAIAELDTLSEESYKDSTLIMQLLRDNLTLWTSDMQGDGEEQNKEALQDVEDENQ

binding: binds
Substance: 14-3-3ε, endogenous in 293T cells (from UniProt P62258 1-255)
